The other results are listed elsewhere or left out. Residues, ends and D or L forms follow the SMILES beside them. *: point of attachment. Cbz = O=C(OCc1ccccc1)*
Columns and labels:
Assay in all cases: log2 fold change, soluble protein after heating vs DMSO (PISA); higher = thermal stabilisation; K562 cells, 10 uM, 30 min; active = over 0.2 and 3.5 SD of the protein, either way, in both replicates (recomputed)
erlotinib = compound: C#Cc1cccc(Nc2ncnc3cc(OCCOC)c(OCCOC)cc23)c1 [erlotinib]
Outline: (§1)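 For each measurement, 10 μM compound was applied for 30 min to K562 cells at 2×10^6 cells/mL. Aliquots were heated for 3 min across 48°C-58°C, pooled, and extracted in PBS with 0.5% NP-40 at 4°C; the supernatant after 21,000xg for 90 min was soluble protein. This was quantified by TMTpro 16plex LC-MS/MS with channel sums equalised, and thermal stability was reported relative to control samples from duplicates, on a log2 fold-change scale.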

Amino acid sequences for entries named in this document (tags omitted). A change or cut given only in a name is not applied to a line headed by its entry.
UniProt A3KN83: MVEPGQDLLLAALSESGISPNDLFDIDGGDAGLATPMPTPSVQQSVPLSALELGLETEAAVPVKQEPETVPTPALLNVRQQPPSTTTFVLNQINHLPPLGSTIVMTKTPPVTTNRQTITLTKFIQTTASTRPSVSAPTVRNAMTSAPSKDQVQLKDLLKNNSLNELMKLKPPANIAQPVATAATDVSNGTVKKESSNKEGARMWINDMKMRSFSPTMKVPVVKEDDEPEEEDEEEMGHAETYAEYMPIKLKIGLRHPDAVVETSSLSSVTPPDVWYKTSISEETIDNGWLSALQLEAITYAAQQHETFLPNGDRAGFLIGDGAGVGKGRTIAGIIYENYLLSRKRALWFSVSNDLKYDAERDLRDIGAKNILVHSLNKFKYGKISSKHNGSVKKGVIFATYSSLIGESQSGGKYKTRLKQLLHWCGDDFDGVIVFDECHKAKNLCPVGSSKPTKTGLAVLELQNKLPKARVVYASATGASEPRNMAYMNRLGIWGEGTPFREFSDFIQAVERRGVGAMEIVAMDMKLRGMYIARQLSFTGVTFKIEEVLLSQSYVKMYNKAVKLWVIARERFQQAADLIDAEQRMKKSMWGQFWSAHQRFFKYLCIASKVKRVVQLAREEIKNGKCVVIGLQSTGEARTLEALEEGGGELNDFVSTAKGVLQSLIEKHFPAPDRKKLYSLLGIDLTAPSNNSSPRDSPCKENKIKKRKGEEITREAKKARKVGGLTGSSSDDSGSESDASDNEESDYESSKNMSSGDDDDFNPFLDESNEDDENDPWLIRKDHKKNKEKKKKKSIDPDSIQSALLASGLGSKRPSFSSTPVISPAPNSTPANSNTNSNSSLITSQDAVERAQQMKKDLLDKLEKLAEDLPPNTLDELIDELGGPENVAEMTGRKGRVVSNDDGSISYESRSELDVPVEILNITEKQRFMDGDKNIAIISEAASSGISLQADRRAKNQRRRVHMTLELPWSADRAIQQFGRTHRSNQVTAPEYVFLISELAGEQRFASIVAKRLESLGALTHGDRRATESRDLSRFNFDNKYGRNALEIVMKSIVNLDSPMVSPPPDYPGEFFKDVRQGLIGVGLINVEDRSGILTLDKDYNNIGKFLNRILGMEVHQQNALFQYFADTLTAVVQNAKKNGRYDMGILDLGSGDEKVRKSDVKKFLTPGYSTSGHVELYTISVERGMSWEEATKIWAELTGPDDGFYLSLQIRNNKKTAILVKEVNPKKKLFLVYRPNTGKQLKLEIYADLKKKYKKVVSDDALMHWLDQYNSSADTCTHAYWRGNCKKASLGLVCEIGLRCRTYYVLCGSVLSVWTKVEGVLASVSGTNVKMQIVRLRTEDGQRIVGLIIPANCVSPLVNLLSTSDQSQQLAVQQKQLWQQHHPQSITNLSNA
UniProt Q9Y230, whole entry, looked up: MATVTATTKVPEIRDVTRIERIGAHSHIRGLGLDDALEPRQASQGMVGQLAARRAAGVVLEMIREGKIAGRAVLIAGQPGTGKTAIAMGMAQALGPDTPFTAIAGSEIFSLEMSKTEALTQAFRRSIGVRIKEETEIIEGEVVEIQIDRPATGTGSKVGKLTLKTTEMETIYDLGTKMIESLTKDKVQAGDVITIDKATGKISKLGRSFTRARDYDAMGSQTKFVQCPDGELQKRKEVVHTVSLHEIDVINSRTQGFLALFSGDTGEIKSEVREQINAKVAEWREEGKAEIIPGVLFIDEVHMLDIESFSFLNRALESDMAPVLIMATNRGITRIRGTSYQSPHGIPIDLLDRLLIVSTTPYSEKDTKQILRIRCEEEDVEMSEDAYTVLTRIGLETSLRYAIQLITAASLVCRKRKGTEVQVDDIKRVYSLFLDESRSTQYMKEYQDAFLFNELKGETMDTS
UniProt Q9Y6U3: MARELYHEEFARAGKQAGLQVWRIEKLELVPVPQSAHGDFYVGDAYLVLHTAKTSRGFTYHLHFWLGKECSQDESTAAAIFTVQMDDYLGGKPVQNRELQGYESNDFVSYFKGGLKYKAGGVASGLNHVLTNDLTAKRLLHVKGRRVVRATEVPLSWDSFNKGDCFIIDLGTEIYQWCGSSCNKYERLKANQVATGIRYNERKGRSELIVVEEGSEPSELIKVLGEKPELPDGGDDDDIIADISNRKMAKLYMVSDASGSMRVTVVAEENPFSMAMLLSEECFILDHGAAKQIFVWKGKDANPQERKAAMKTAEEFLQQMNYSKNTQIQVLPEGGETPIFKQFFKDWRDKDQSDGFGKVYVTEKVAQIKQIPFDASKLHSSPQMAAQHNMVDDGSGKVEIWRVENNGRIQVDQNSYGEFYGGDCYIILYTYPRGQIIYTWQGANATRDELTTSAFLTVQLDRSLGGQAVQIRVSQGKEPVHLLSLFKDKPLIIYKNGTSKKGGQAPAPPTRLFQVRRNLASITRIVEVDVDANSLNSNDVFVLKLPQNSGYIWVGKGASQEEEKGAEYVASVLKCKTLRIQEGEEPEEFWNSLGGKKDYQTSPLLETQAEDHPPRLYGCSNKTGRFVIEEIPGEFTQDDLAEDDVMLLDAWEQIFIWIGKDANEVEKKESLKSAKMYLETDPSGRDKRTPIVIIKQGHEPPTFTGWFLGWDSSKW
UniProt Q9Y512: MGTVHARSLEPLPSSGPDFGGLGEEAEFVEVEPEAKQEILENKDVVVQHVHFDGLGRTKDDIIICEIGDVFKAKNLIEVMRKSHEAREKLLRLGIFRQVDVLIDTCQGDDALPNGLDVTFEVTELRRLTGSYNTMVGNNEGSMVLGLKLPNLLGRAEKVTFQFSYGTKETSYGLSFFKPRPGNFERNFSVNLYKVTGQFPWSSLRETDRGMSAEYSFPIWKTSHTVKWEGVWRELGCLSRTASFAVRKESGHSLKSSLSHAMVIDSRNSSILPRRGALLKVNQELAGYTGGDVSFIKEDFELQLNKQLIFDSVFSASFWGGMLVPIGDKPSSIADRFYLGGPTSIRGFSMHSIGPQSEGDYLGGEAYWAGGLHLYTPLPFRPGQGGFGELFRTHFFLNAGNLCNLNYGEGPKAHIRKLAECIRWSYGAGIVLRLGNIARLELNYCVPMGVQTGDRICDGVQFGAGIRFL
UniProt Q8WU76: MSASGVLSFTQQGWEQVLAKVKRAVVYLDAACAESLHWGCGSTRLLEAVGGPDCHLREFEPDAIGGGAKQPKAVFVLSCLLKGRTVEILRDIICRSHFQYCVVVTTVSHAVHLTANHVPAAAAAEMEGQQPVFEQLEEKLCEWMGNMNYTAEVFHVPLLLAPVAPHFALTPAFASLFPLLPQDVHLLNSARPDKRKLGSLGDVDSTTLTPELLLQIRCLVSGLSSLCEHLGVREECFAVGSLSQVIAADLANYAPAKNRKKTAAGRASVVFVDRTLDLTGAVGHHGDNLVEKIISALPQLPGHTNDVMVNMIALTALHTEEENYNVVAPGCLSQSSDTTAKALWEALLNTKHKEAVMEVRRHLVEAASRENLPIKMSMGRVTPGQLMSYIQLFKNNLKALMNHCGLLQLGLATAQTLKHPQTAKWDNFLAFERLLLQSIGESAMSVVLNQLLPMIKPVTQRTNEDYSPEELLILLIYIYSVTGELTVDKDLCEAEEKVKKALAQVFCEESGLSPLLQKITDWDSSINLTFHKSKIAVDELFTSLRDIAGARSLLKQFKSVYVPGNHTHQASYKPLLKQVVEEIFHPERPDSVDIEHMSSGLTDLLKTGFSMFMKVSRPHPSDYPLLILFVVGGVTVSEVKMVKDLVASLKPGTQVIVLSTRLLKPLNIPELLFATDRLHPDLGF
UniProt Q96FV2: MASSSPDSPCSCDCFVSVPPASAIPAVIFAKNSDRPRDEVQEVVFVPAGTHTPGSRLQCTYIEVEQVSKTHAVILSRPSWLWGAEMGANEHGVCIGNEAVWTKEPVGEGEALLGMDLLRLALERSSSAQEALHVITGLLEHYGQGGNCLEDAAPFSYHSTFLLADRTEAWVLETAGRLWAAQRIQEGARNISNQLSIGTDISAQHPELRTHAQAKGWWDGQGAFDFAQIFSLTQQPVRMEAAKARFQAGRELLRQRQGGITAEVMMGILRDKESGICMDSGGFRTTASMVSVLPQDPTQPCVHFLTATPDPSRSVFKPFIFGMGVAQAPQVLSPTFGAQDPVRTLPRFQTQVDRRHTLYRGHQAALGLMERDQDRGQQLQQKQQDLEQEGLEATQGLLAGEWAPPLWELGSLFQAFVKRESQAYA
UniProt O75880: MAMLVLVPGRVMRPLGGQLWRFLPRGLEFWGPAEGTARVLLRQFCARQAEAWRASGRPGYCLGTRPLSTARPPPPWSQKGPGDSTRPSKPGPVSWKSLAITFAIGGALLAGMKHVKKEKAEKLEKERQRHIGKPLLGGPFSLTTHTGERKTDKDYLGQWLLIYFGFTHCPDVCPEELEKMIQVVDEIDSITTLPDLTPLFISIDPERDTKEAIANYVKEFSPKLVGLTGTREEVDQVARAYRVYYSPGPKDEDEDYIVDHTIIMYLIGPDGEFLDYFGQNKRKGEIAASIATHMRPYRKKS
UniProt P67812: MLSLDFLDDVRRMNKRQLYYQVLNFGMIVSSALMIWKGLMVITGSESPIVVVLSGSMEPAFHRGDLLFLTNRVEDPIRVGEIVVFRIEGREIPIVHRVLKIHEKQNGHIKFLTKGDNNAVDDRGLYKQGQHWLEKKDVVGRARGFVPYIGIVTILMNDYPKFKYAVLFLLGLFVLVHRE
UniProt Q9Y3B9: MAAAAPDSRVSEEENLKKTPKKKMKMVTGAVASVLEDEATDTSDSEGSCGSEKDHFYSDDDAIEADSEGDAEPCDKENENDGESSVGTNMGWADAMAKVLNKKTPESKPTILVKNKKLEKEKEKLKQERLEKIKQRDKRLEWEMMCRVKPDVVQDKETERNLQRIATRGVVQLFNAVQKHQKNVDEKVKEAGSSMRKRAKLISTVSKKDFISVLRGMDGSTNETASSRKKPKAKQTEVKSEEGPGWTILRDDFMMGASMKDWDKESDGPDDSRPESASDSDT
UniProt Q9NQC3: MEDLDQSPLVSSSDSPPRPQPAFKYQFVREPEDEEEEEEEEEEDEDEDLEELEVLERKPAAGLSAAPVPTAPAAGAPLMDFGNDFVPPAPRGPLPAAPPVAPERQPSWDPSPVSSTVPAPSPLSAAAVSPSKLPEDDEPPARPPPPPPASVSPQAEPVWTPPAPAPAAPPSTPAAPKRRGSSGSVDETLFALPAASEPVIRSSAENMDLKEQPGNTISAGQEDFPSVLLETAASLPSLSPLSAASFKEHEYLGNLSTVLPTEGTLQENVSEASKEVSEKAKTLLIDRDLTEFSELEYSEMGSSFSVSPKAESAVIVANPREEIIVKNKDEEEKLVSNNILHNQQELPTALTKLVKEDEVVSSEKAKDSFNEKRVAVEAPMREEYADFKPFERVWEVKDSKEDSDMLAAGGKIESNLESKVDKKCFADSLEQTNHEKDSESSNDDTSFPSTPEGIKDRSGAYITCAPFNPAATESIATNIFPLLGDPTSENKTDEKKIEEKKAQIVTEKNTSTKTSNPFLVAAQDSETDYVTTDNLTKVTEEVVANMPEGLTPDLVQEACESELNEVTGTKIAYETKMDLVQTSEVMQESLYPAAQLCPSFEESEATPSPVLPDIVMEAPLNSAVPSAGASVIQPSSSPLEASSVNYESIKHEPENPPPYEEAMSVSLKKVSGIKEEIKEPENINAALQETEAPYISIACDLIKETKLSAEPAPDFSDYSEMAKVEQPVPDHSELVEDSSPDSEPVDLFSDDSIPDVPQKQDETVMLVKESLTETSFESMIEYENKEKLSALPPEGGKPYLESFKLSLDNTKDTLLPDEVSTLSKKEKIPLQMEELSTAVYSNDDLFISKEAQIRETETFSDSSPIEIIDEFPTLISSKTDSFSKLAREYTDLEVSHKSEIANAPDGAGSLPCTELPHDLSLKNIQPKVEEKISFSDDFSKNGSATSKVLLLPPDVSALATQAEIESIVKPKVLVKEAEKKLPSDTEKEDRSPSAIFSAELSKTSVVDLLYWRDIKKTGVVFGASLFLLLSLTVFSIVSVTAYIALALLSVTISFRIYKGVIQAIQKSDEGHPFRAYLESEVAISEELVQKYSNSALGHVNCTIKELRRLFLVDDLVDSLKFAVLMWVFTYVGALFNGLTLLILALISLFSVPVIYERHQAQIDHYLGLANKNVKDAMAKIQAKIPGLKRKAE
UniProt Q96BU1: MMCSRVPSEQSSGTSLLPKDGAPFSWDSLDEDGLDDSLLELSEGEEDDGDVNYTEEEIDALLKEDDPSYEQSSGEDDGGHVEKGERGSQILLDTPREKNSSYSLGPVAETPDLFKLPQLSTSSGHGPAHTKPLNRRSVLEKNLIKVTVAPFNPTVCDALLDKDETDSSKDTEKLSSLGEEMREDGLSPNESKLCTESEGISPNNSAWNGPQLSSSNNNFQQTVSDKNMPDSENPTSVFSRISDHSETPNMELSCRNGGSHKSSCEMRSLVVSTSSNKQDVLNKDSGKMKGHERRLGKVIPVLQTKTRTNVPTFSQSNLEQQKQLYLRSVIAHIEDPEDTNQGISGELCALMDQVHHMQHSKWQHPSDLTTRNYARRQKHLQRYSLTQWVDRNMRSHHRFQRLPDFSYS

[1] = compound: C/C(=N\NC(=O)C1=CC(=CC=C1)S(=O)(=O)N2CCOCC2)/C3=C(C=CC(=C3)Cl)O
Outline: as §1

[2] = compound: C1=CC(=C(C=C1Cl)C2=NC3=NC=CN=C3C(=N2)NC4=CC=NC=C4)F
Outline: as §1

[3] = compound: C1=CC(=CC=C1C2=NC3=C(N2)C=C(C=C3)C(=O)N)OC4=CC=C(C=C4)Cl
Outline: as §1

[4] = compound: C1=CC2=C(C=CC(=C2)/C=C\3/C(=O)NC(=NCC4=CC=CS4)S3)N=C1
Outline: as §1

[5] = compound: C1=CC2=NC=CN=C2C=C1/C=C/3\C(=O)NC(=O)S3
Outline: as §1

[6] = compound: C1=CC=C(C=C1)C2=NC(=C(N2)C3=CC=NC=C3)C4=CC(=C(C=C4)Cl)O
Outline: as §1

[7] = compound: C1=CC=C2C(=C1)C3=NNC4=CC=CC(=C43)C2=O
Outline: as §1

[8] = compound: C1CCN(C1)C(=O)NC2=CC=CC(=C2)NC3=NC=C(C(=N3)NCCC4=CN=CN4)Br
Outline: as §1

[9] = compound: C1CN(CCC1(CC2=CC=C(C=C2)Cl)N)C3=NC=NC4=C3C=CN4
Outline: as §1

IRAK-1-4 Inhibitor I = compound: C1COCCN1CCN2C3=CC=CC=C3N=C2NC(=O)C4=CC(=CC=C4)[N+](=O)[O-] [IRAK-1-4 Inhibitor I]
Outline: as §1

ibrutinib = compound: C=CC(=O)N1CCC[C@@H](n2nc(-c3ccc(Oc4ccccc4)cc3)c3c(N)ncnc32)C1 [ibrutinib]
Outline: as §1

[10] = compound: CC(=O)c1cnc2ccc(-c3cc(Cl)c(O)c(Cl)c3)nc2c1N[C@H]1CC[C@H](CN(C)C)CC1
Outline: as §1

ralimetinib = compound: CC(C)(C)Cn1c(N)nc2ccc(-c3[nH]c(C(C)(C)C)nc3-c3ccc(F)cc3)nc21 [ralimetinib]
Outline: as §1

[11] = compound: CC(C)(O)CC(=O)NCCn1ccc2ncnc(Nc3ccc(Oc4cccc(C(F)(F)F)c4)c(Cl)c3)c21
Outline: as §1

[12] = compound: CC(C)C1=C2N=C(C=C(N2N=C1)NCC3=CC=CC=C3)NCCCCCCN
Outline: as §1

[13] = compound: CC(C)C[C@@H](C=O)NC(=O)[C@H](CC(C)C)NC(=O)[C@H](CC(C)C)NC(=O)OCc1ccccc1
Outline: as §1

pinometostat = compound: CC(C)N(C[C@H]1O[C@@H](n2cnc3c(N)ncnc32)[C@H](O)[C@@H]1O)[C@H]1C[C@@H](CCc2nc3cc(C(C)(C)C)ccc3[nH]2)C1 [pinometostat]
Outline: as §1

[14] = compound: CC1=C(C(CC(=O)N1)C2=CC=C(C=C2)C(F)(F)F)C(=O)NC3=C(C=C4C(=C3)C=NN4)F
Outline: as §1

[15] = compound: CC1=C(C2=C(C=C1)C(=O)C3=CC=CC=C3N2CCCN)C
Outline: as §1

Measured: log2 fold change

SBNO1 (UniProt A3KN83)
inactive: erlotinib -0.047 | [1] 0.021 | [2] 0.075 | [3] 0.005 | [4] -0.006 | [5] 0.013 | [6] 0.002 | [7] 0.008 | [8] -0.001 | [9] 0.004 | IRAK-1-4 Inhibitor I 0.003 | ibrutinib -0.029 | [10] -0.003 | ralimetinib -0.03 | [11] -0.018 | [12] 0.071 | [13] 0.027 | pinometostat -0.007 | [14] -0.001 | [15] 0.047

RUVBL2 (UniProt Q9Y230)
inactive: erlotinib 0 | [1] 0 | [2] 0.038 | [3] 0.007 | [4] -0.03 | [5] 0.024 | [6] 0.002 | [7] -0.011 | [8] -0.021 | [9] 0.065 | IRAK-1-4 Inhibitor I 0.003 | ibrutinib 0.015 | [10] 0.063 | ralimetinib 0.002 | [11] 0.024 | [12] 0.128 | [13] -0.021 | pinometostat -0.025 | [14] -0.025 | [15] -0.011

SCIN (UniProt Q9Y6U3)
inactive: erlotinib 0.015 | [1] 0.056 | [2] 0.026 | [3] -0.052 | [4] 0.091 | [5] 0.042 | [6] 0.058 | [7] -0.073 | [8] -0.054 | [9] 0.063 | IRAK-1-4 Inhibitor I -0.053 | ibrutinib 0.026 | [10] 0.006 | ralimetinib 0.051 | [11] -0.061 | [12] -0.157 | [13] 0.036 | pinometostat 0.03 | [14] -0.11 | [15] -0.075

SASS6 (UniProt Q6UVJ0)
inactive: erlotinib 0.034 | [1] -0.05 | [2] -0.06 | [3] -0.174 | [4] 0.082 | [5] -0.242 | [6] 0.075 | [7] 0.124 | [8] -0.068 | [9] 0.02 | IRAK-1-4 Inhibitor I 0.094 | ibrutinib 0.221 | [10] 0 | ralimetinib 0.113 | [11] 0 | [12] -0.198 | [13] 0.089 | pinometostat 0.028 | [14] -0.001 | [15] 0.174

SAMM50 (UniProt Q9Y512)
inactive: erlotinib 0 | [1] 0.009 | [2] 0.038 | [3] 0.003 | [4] -0.033 | [5] 0.026 | [6] 0.005 | [7] -0.026 | [8] 0.031 | [9] 0.062 | IRAK-1-4 Inhibitor I 0 | ibrutinib 0.02 | [10] 0.062 | ralimetinib -0.016 | [11] 0.065 | [12] -0.007 | [13] -0.019 | pinometostat -0.041 | [14] 0.012 | [15] -0.009

SCFD2 (UniProt Q8WU76)
inactive: erlotinib 0.121 | [1] 0.034 | [2] -0.221 | [3] -0.033 | [4] 0.013 | [5] 0.016 | [6] 0.094 | [7] -0.048 | [8] -0.011 | [9] -0.042 | IRAK-1-4 Inhibitor I -0.076 | ibrutinib -0.098 | [10] 0 | ralimetinib 0.138 | [11] -0.009 | [12] -0.025 | [13] 0.087 | pinometostat 0.16 | [14] 0.003 | [15] 0.032

SCRN2 (UniProt Q96FV2)
inactive: erlotinib 0.086 | [1] -0.014 | [2] 0.036 | [3] 0.091 | [4] -0.039 | [5] -0.02 | [6] -0.121 | [7] 0.101 | [8] -0.029 | [9] 0.001 | IRAK-1-4 Inhibitor I 0.04 | ibrutinib 0.011 | [10] 0.019 | ralimetinib 0.221 | [11] -0.064 | [12] -0.043 | [13] 0.009 | pinometostat -0.088 | [14] -0.034 | [15] -0.096

SCAMP3 (UniProt O14828)
inactive: erlotinib 0.036 | [1] -0.056 | [2] -0.006 | [3] -0.01 | [4] -0.005 | [5] 0.041 | [6] -0.001 | [7] -0.037 | [8] 0.03 | [9] 0.068 | IRAK-1-4 Inhibitor I 0.039 | ibrutinib -0.017 | [10] -0.013 | ralimetinib -0.054 | [11] 0.001 | [12] -0.012 | [13] 0 | pinometostat -0.065 | [14] 0.009 | [15] -0.06

SCO1 (UniProt O75880)
inactive: erlotinib 0.01 | [1] 0.179 | [2] -0.014 | [3] 0.054 | [4] -0.052 | [5] 0.065 | [6] -0.009 | [7] 0.059 | [8] 0.048 | [9] -0.011 | IRAK-1-4 Inhibitor I 0.078 | ibrutinib 0.008 | [10] 0 | ralimetinib 0.006 | [11] 0.023 | [12] -0.028 | [13] 0.011 | pinometostat -0.035 | [14] -0.002 | [15] 0.016

SCAP (UniProt Q12770)
inactive: erlotinib -0.001 | [1] -0.005 | [2] 0.033 | [3] -0.006 | [4] -0.037 | [5] 0.041 | [6] 0.009 | [7] -0.04 | [8] 0.025 | [9] -0.003 | IRAK-1-4 Inhibitor I -0.004 | ibrutinib -0.106 | [10] -0.034 | ralimetinib -0.059 | [11] -0.062 | [12] -0.164 | [13] -0.029 | pinometostat -0.016 | [14] 0.022 | [15] 0.019

SEC11A isoform 3 (UniProt P67812)
inactive: erlotinib -0.057 | [1] 0.019 | [2] 0.051 | [3] -0.021 | [4] -0.006 | [5] 0.032 | [6] -0.02 | [7] 0 | [8] -0.012 | [9] 0.008 | IRAK-1-4 Inhibitor I -0.001 | ibrutinib -0.046 | [10] -0.01 | ralimetinib -0.002 | [11] -0.011 | [12] -0.044 | [13] -0.026 | pinometostat 0.01 | [14] -0.014 | [15] 0.009

RRP15 (UniProt Q9Y3B9)
inactive: erlotinib -0.003 | [1] -0.031 | [2] -0.061 | [3] 0.025 | [4] -0.061 | [5] 0.024 | [6] -0.036 | [7] -0.043 | [8] -0.042 | [9] 0.061 | IRAK-1-4 Inhibitor I 0.049 | ibrutinib 0.001 | [10] 0.029 | ralimetinib 0.029 | [11] 0.067 | [12] 0.103 | [13] 0.032 | pinometostat -0.011 | [14] 0.039 | [15] -0.097

2 consecutive records out of the list so far, for reference:
SCAMP3 (UniProt O14828)
inactive: erlotinib 0.036 | [1] -0.056 | [2] -0.006 | [3] -0.01 | [4] -0.005 | [5] 0.041 | [6] -0.001 | [7] -0.037 | [8] 0.03 | [9] 0.068 | IRAK-1-4 Inhibitor I 0.039 | ibrutinib -0.017 | [10] -0.013 | ralimetinib -0.054 | [11] 0.001 | [12] -0.012 | [13] 0 | pinometostat -0.065 | [14] 0.009 | [15] -0.06

SCO1 (UniProt O75880)
inactive: erlotinib 0.01 | [1] 0.179 | [2] -0.014 | [3] 0.054 | [4] -0.052 | [5] 0.065 | [6] -0.009 | [7] 0.059 | [8] 0.048 | [9] -0.011 | IRAK-1-4 Inhibitor I 0.078 | ibrutinib 0.008 | [10] 0 | ralimetinib 0.006 | [11] 0.023 | [12] -0.028 | [13] 0.011 | pinometostat -0.035 | [14] -0.002 | [15] 0.016

More records.

SAR1A (UniProt Q9NR31)
inactive: erlotinib 0.019 | [1] 0.069 | [2] 0.134 | [3] -0.044 | [4] -0.112 | [5] -0.002 | [6] 0.116 | [7] 0.022 | [8] 0.027 | [9] 0.018 | IRAK-1-4 Inhibitor I 0.042 | ibrutinib -0.023 | [10] 0.069 | ralimetinib 0.014 | [11] -0.093 | [12] 0.051 | [13] -0.018 | pinometostat -0.036 | [14] -0.092 | [15] 0.085

RTN4 (UniProt Q9NQC3)
inactive: erlotinib -0.036 | [1] -0.007 | [2] 0.019 | [3] 0.024 | [4] -0.023 | [5] 0.063 | [6] -0.024 | [7] -0.018 | [8] 0.004 | [9] 0.059 | IRAK-1-4 Inhibitor I 0.028 | ibrutinib 0.006 | [10] -0.011 | ralimetinib -0.086 | [11] -0.011 | [12] 0.006 | [13] -0.026 | pinometostat -0.038 | [14] -0.031 | [15] -0.043

SBF1 isoform 4 (UniProt O95248)
inactive: erlotinib -0.064 | [1] 0.05 | [2] -0.127 | [3] 0.057 | [4] -0.005 | [5] -0.206 | [6] -0.061 | [7] -0.056 | [8] -0.258 | [9] -0.087 | IRAK-1-4 Inhibitor I -0.073 | ibrutinib 0.153 | [10] -0.111 | ralimetinib 0.069 | [11] 0.098 | [12] -0.049 | [13] 0.135 | pinometostat -0.017 | [14] 0.211 | [15] 0.14

S100PBP (UniProt Q96BU1)
inactive: erlotinib 0.103 | [1] -0.094 | [2] -0.049 | [3] 0.022 | [4] 0.098 | [5] 0.159 | [6] -0.106 | [7] -0.13 | [8] -0.057 | [9] -0.044 | IRAK-1-4 Inhibitor I 0.085 | ibrutinib -0.082 | [10] 0.126 | ralimetinib 0.099 | [11] 0.092 | [12] 0.015 | [13] 0.113 | pinometostat -0.158 | [14] 0.055 | [15] -0.169
